Results from article PMC5983119.
For at least one entry, the source does not settle the construct or the ends of the probe. A weaker result is weaker than the reference pair of the same experiment.

Molecular target: TDP-43 F210I (RRM2mut) (mouse) (UniProt Q921F2)
Assay: EMSA
Settings: reduced vs WT, 5% acrylamide gel, protein 0.25-2 ug with 32P RNA in unspecified binding buffer, pH and temperature not given, recombinant protein, protein details: GST, label: 32P (gamma-32P)

Sequence: UGUGUGUGUGUG [(UG)6 RNA]
- binding result: binds more weakly
